Measurements as given in article PMC7681104.
Results are given in words; binding and its absence hold for the method and conditions named. In cells and extracts the contact can be indirect. Some entries that bind do so weakly or less than the wild type.

Chains of the proteins cited; added tags and fusions are not shown.
UniProt Q921F2: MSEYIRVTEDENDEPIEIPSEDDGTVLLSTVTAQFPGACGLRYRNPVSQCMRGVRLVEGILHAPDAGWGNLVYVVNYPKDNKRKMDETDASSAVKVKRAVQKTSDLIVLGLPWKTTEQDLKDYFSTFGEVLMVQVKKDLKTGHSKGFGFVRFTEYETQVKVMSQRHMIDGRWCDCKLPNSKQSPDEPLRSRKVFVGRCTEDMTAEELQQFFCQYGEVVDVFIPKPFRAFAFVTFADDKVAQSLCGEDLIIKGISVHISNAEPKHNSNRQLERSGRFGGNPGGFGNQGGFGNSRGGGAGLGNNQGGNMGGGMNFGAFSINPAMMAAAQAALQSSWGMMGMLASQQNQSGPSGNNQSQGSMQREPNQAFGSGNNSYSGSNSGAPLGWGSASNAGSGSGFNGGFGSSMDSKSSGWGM

Target: TAR DNA-binding protein 43 (mouse (endogenous in adult mouse brain and primary mouse cortical neurons)) (UniProt Q921F2)
Assay: co-IP; whole brain lysates of adult mice in RIPA lysis buffer; Catch and Release v2.0 Reversible Immunoprecipitation System with 4 ug anti-TDP-43 or 4 ug anti-FMRP; western blot

B1: Staufen 2 (protein, UniProt Q8CJ67 1-570)
chain: MANPKEKTPVCLVNELARFHSIQPQYKLLNESGPAHSKMFSVQLSLGEQTWESEGSSIKKAQQAVANKALTESTLPKPVQKPPKSNVNNNPGSITPTVELNGLAMKRGEPAIYRPLDPKPFPNYRANYNFRGMYNQRYHCPMPKIFYVQLTVGNNEFFGEGKTRQAARHNAAMKALQALQNEPIPEKSPQNGESGKEMDDDKDANKSEISLVFEIALKRNMPVSFEVIKESGPPHMKSFVTRVSVGEFSAEGEGNSKKLSKKRAATTVLQELKKLPPLPVVEKPKLFFKKRPKTIVKAGPDYGQGMNPISRLAQIQQARKEKEPDYILLSERGMPRRREFVMQVKVGNEVATGTGPNKKIAKKNAAEAMLLQLGYKASTSLQDPLDKTGENKGWSGPKPGFPEPTNNTPKGILHLSPDVYQEMEASRHRVTSGTTLSYLSPKDMNQPSSSFFSVSPSSTSSATVARELLMNGTSPTAEAIGLKGSSPTSPCSSVQPSKQLEYLARIQGFQAALSALKQFSEQGLESIDGAVNVEKGSLEKQAKHLREKADNNQAKPASISQDCKKSKSAI
In the case of B1, the binding is reported as “binds”.
